Assay results as given in article PMC10761396, “Evaluation of new alternative methods for the identification of estrogenic, androgenic and steroidogenic effects: a comparative in vitro/in silico study” (Archives of Toxicology, 2023).

Test system: human (non-selective) ER
Assay: ER radioligand ([3H]estradiol) receptor-binding assay
Conditions: single-dose screening, 10 µM

SMILES: CC/C(=C(\c1ccccc1)c1ccc(OCCN(C)C)cc1)c1ccccc1 [Tamoxifen, reference compound]
- inhibition of control specific binding to the ER: more than 50%
